Source: publication PMC5996148
The list shows a part of the results.

Columns and labels:
Experiment in all cases: protein microarray (ProtoArray v5.0), streptavidin-Alexa Fluor 647
Settings in all cases: 3'-biotin; 20 mM Tris (pH 7.5), 5 mM MgCl2, 100 mM KCl, 0.1% Tween-20, A/T-rich and random oligonucleotide blockers; temperature not stated; high values mean tight binding
CEACAM6 (human) = test system: CEACAM6 (human)
CENTD2 (human) = test system: CENTD2 (human)
CHAF1B (human) = test system: CHAF1B (human)
CHEK2 (human) = test system: CHEK2 (human)
CHN1 (human) = test system: CHN1 (human)
CHRAC1 (human) = test system: CHRAC1 (human)
CKLFSF5 (human) = test system: CKLFSF5 (human)
CKM (human) = test system: CKM (human)
CLCF1 (human) = test system: CLCF1 (human)
CLDN18 (human) = test system: CLDN18 (human)

In the case of “GGGGACAGGGGTATGGGGAGGGG [G4-3 biotinylated (CtG)]”, the binding signal (CEACAM6 (human)) is reported as -0.328 z-score, the binding signal (CENTD2 (human)) is reported as -0.33 z-score and the binding signal (CHAF1B (human)) is reported as -0.329 z-score. It also gave a binding signal (CHEK2 (human)) of -0.324 z-score, a binding signal (CHN1 (human)) of -0.333 z-score and a binding signal (CHRAC1 (human)) of -0.334 z-score. The binding signal (CKLFSF5 (human)) was -0.332 z-score, the binding signal (CKM (human)) was -0.337 z-score and the binding signal (CLCF1 (human)) was -0.322 z-score. The binding signal (CLDN18 (human)) was -0.31 z-score.
